The source of these data is the supplement of paper PMC12823440, “Inhibitors supercharge kinase turnover through native proteolytic circuits” (Nature, 2025).

Sequences of proteins named here, by UniProt entry; tags and fusion partners are left off. A change or cut given only in a name is not applied to a line headed by its entry.
UniProt O96017, whole entry: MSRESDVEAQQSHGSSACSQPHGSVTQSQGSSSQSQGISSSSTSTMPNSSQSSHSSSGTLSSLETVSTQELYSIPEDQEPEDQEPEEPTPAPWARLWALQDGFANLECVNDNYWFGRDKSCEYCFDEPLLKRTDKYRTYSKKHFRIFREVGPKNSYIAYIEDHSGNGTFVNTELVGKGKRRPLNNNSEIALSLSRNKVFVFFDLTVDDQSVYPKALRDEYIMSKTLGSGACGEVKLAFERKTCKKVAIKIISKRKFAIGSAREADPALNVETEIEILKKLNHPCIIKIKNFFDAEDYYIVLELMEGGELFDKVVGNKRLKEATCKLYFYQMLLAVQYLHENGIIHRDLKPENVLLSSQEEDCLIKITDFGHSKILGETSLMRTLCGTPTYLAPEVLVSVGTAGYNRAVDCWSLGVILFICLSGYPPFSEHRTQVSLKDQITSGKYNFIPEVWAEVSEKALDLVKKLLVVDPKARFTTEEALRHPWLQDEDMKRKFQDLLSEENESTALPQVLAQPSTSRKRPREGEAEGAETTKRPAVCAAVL
UniProt Q01974, whole entry: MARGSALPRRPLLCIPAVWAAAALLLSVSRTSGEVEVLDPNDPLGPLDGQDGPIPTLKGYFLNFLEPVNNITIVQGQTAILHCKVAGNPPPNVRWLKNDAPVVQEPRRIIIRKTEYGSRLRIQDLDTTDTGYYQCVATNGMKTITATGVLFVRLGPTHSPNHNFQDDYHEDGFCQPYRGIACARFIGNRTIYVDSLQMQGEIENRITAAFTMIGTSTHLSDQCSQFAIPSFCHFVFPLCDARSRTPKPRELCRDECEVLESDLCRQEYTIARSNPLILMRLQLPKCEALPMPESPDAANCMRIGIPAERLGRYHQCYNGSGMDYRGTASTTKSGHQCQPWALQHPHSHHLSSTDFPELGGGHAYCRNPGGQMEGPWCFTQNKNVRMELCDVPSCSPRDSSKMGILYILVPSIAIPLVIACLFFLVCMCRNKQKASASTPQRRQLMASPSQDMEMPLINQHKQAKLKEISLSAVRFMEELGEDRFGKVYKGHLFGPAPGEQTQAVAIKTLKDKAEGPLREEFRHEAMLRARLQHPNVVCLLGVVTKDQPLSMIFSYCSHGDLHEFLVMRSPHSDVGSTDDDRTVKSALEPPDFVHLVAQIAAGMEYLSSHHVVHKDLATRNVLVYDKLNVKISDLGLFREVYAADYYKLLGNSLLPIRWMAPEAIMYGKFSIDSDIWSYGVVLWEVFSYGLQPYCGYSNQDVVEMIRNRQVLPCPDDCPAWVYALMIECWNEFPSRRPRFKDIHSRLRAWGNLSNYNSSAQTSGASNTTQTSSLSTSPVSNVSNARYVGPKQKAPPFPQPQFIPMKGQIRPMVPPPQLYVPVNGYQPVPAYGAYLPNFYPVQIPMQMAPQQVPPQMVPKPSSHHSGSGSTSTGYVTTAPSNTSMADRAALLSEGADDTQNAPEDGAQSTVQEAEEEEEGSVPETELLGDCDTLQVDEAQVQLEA
UniProt P07949, whole entry, looked up: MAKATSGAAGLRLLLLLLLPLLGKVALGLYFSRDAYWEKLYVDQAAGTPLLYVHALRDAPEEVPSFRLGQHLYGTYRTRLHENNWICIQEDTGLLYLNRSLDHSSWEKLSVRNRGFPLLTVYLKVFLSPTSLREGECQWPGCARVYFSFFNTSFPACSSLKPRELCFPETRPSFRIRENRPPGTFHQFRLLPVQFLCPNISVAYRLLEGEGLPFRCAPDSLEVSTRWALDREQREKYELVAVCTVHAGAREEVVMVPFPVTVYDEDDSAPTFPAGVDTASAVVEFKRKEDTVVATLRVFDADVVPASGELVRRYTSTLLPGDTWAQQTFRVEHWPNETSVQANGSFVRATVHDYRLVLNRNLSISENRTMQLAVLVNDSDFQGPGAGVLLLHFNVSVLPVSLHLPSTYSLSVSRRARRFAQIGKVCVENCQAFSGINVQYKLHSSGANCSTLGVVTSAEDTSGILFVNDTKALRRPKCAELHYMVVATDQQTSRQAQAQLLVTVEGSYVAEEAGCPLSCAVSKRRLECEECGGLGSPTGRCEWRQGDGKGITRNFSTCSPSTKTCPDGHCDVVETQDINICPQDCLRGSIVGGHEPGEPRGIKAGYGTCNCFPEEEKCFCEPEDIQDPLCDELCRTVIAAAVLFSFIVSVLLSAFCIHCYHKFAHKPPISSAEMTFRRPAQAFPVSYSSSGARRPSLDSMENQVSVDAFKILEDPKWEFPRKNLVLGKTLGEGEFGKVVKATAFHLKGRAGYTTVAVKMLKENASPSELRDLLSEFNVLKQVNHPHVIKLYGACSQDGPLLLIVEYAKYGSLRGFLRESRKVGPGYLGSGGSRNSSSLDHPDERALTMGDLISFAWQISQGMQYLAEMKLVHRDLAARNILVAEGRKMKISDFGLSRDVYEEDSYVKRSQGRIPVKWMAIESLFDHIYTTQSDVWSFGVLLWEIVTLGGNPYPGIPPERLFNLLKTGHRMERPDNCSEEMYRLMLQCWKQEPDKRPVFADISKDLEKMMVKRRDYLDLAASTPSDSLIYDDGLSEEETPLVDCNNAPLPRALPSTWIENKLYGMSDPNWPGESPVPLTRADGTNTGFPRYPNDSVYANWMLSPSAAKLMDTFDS
UniProt P51813: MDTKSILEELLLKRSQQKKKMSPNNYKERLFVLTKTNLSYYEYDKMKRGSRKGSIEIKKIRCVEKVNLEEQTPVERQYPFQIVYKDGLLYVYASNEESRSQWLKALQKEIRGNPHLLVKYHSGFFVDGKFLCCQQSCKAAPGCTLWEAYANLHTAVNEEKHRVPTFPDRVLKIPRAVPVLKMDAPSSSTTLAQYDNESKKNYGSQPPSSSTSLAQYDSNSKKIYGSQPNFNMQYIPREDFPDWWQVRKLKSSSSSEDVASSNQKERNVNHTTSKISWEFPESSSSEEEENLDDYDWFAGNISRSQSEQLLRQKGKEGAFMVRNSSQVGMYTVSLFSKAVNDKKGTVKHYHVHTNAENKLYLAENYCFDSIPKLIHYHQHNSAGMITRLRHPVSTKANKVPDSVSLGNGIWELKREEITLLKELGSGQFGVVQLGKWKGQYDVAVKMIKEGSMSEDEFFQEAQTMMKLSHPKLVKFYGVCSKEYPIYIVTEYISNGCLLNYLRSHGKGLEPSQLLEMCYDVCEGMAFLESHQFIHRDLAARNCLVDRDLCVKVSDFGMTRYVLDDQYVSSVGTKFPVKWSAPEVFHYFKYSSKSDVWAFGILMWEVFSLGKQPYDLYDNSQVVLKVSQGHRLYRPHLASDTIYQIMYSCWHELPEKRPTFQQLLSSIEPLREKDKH
UniProt O96013: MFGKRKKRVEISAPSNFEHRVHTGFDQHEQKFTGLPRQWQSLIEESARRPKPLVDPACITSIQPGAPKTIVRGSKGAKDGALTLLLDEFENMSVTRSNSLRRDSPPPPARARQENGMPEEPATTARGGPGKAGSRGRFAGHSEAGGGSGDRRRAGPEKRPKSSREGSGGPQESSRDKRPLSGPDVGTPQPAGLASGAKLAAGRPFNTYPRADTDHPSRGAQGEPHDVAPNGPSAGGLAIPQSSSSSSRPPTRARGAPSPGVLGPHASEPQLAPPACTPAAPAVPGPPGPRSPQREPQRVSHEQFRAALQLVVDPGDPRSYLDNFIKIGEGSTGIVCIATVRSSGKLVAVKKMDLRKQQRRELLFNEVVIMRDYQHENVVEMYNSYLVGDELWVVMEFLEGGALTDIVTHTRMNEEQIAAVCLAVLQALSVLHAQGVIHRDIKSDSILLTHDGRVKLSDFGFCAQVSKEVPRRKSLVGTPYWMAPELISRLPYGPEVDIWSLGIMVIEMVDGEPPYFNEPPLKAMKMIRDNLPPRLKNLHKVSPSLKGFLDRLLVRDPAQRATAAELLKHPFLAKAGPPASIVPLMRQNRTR

Assay in all cases: number of time points (of 5) at which kinase-Nluc abundance scored as decreased, DMSO-normalised (count); higher = more persistent destabilization
Compound in test [1]: COc1cc2c(-c3cnn4cc(N5CCC(N6CCN(C)CC6)CC5)cnc34)ccnc2cc1F
The note with it: 10 µM; K562; 2-18 h.

Compound in test [2]: COc1cc2c(Oc3ccc4[nH]c(C)cc4c3F)ncnc2cc1OCCCN1CCCC1 [Cediranib (maleate)]
The note with it: 2.5 µM; K562; 2-18 h.

Compound in test [3]: COc1cc2c(Oc3ccc4[nH]c(C)cc4c3F)ncnc2cc1OCCCN1CCCC1 [Cediranib]
The note with it: 2.5 µM; K562; 2-18 h.

Compound in test [4]: COc1cc2c(cc1OC)-c1c(C)c3ccc(OC)c(OC)c3c[n+]1CC2 [Dehydrocorydaline (chloride)]
The note with it: 10 µM; K562; 2-18 h.

Compound in test [5]: COc1cc2c(cc1OC)-c1c(C)c3ccc(OC)c(OC)c3c[n+]1CC2 [Dehydrocorydaline]
The note with it: 10 µM; K562; 2-18 h.

Compound in test [6]: COc1cc2nccc(Nc3cc(OC)c(OC)c(OC)c3)c2cc1OC [GAK inhibitor 49 (hydrochloride)]
The note with it: 10 µM; K562; 2-18 h.

Compound in test [7]: COc1cc2nccc(Nc3cc(OC)c(OC)c(OC)c3)c2cc1OC [GAK inhibitor 49]
The note with it: 10 µM; K562; 2-18 h.

Compound in test [8]: COc1cc2nccc(Oc3ccc(NC(=O)C4(C(=O)Nc5ccc(F)cc5)CC4)cc3)c2cc1OC [Cabozantinib (S-malate)]
The note with it: 10 µM; K562; 2-18 h.

Compound in test [9]: COc1cc2nccc(Oc3ccc(NC(=O)C4(C(=O)Nc5ccc(F)cc5)CC4)cc3)c2cc1OC [Cabozantinib]
The note with it: 2.5 µM; K562; 2-18 h.

Compound in test [10]: COc1ccc(S(=O)(=O)N(CCO)c2ccccc2CN(C)C/C=C/c2ccc(Cl)cc2)cc1 [KN-93 (hydrochloride)]
The note with it: 2.5 µM; K562; 2-18 h.

Compound in test [11]: COc1ccc(S(=O)(=O)N(CCO)c2ccccc2CN(C)C/C=C/c2ccc(Cl)cc2)cc1 [KN-93 (phosphate)]
The note with it: 2.5 µM; K562; 2-18 h.

Compound in test [12]: COc1ccc(S(=O)(=O)Nc2ccccc2CN(C)C/C=C/c2ccc(Cl)cc2)cc1 [KN-92 (hydrochloride)]
The note with it: 2.5 µM; K562; 2-18 h.

Compound in test [13]: COc1ccc(S(=O)(=O)Nc2ccccc2CN(C)C/C=C/c2ccc(Cl)cc2)cc1 [KN-92 (phosphate)]
The note with it: 2.5 µM; K562; 2-18 h.

Compound in test [14]: COc1ccc2c(c1)C(c1ccc(F)cc1)=C(CN1CCCC1)CO2 [AX-024 hydrochloride]
The note with it: 10 µM; K562; 2-18 h.

Compound in test [15]: COc1ccc2c(c1)C(c1ccc(F)cc1)=C(CN1CCCC1)CO2
The note with it: 10 µM; K562; 2-18 h.

Compound in test [16]: COc1ccnc(C[S+]([O-])c2nc3cc(-n4cccc4)ccc3[nH]2)c1C [Ilaprazole (sodium)]
The note with it: 10 µM; K562; 2-18 h.

Compound in test [17]: COc1ccnc(C[S+]([O-])c2nc3cc(-n4cccc4)ccc3[nH]2)c1C [Ilaprazole]
The note with it: 10 µM; K562; 2-18 h.

Compound in test [18]: COc1ncc(F)cc1CNc1ccc(Cc2c[nH]c3ncc(C)cc23)c(F)n1 [PLX5622 (hemifumarate)]
The note with it: 10 µM; K562; 2-18 h.

Compound in test [19]: COc1ncc(F)cc1CNc1ccc(Cc2c[nH]c3ncc(C)cc23)c(F)n1
The note with it: 10 µM; K562; 2-18 h.

Compound in test [20]: CS(=O)(=O)N1CCN(Cc2cc3nc(-c4cccc5[nH]ncc45)nc(N4CCOCC4)c3s2)CC1 [Pictilisib (dimethanesulfonate)]
The note with it: 10 µM; K562; 2-18 h.

The other results are listed elsewhere or left out. The calls rarely recur for the same compound in another form.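 In K562 cells expressing nanoluciferase-fused kinases, luminescence was recorded at 4 h intervals between 2 and 18 h, normalized as percent of control with DMSO at 100% and a positive control at 0%. A significant (2 sigma) signal drop marks a time point as decreased. The authors' rule for a hit is not shown and takes in more than the number of time points.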

Regarding CHEK2 (UniProt O96017), the “number of time points” value in test [1], in [2], in test [3], in test [4], in test [5] and in [6] was 0 throughout. The “number of time points” value in test [7] stood at 0; in test [8] it was 0; in test [9] it was 1; in test [10], 0; in [11] it was 0; in [12], 0. In addition, the “number of time points” value in test [13], in [14], in test [15], in [16], in test [17] and in test [18] was 0 throughout. Moreover, the “number of time points” value in [19] and in test [20] was 0 in each case.
For ROR2 (UniProt Q01974), the “number of time points” value in [1], in test [2], in test [3], in [4], in [5] and in test [6] was 0 in each case. The “number of time points” value in test [7] was found to be 0; in [8], 1; in test [9], 0; in [10] it was 0; in test [11], 0; in test [12] it was 0. In addition, the “number of time points” value in [13], in [14], in test [15], in test [16], in [17] and in [18] was 0 in each case. The “number of time points” value in [19] and in test [20] was 0 each time.
For RET (UniProt P07949), the “number of time points” value in test [1], in test [2], in [3], in test [4], in [5] and in test [6] was 0 throughout. Besides, the “number of time points” value amounted to 0 in test [7]; 1 in test [8]; 2 in [9]; 0 in test [10]; 0 in test [11]; 0 in test [12]. In addition, the “number of time points” value in test [13], in [14], in test [15], in test [16], in test [17] and in test [18] was 0 throughout. The “number of time points” value in [19] and in test [20] was 0 throughout.
For the target MAP2K2 (UniProt P36507), the “number of time points” value in test [1], in test [2], in test [3], in [4], in test [5] and in test [6] was 0 throughout. Moreover, the “number of time points” value in test [7], in test [8], in test [9], in [10], in [11] and in test [12] was 0 throughout. For the same target, the “number of time points” value in test [13], in [14], in test [15], in test [16], in [17] and in test [18] was 0 in each case. Besides, the “number of time points” value in test [19] and in test [20] was 0 throughout.
Take BMX (UniProt P51813): the “number of time points” value in test [1], in test [2], in test [3], in [4], in [5] and in [6] was 0 each time. Further, the “number of time points” value in test [7] is 1; in test [8], 3; in [9], 3; in test [10], 0; in [11], 0; in [12], 0. The “number of time points” value in [13], in test [14], in test [15], in [16], in test [17] and in test [18] was 0 each time. Besides, the “number of time points” value in test [19] and in test [20] was 0 in each case.
As to PAK4 (UniProt O96013), the “number of time points” value in test [1], in [2], in test [3], in [4], in test [5] and in test [6] was 0 throughout. Besides, the “number of time points” value in test [7], in test [8], in test [9], in test [10], in test [11] and in [12] was 0 throughout. Further, the “number of time points” value in test [13], in test [14], in [15], in test [16], in test [17] and in test [18] was 0 throughout. Besides, the “number of time points” value in test [19] and in test [20] was 0 in each case.
